Test results as given in patent publication US20250179000A1 (Sanford Burnham Prebys Medical Discovery Institute, priority 2021, published 2025).
The match of structure and compound is tentative.

Sequences of proteins named here, by UniProt entry; tags and fusion partners are left off. Residues count along the entry.
UniProt P31421, 19-872 limits assumed: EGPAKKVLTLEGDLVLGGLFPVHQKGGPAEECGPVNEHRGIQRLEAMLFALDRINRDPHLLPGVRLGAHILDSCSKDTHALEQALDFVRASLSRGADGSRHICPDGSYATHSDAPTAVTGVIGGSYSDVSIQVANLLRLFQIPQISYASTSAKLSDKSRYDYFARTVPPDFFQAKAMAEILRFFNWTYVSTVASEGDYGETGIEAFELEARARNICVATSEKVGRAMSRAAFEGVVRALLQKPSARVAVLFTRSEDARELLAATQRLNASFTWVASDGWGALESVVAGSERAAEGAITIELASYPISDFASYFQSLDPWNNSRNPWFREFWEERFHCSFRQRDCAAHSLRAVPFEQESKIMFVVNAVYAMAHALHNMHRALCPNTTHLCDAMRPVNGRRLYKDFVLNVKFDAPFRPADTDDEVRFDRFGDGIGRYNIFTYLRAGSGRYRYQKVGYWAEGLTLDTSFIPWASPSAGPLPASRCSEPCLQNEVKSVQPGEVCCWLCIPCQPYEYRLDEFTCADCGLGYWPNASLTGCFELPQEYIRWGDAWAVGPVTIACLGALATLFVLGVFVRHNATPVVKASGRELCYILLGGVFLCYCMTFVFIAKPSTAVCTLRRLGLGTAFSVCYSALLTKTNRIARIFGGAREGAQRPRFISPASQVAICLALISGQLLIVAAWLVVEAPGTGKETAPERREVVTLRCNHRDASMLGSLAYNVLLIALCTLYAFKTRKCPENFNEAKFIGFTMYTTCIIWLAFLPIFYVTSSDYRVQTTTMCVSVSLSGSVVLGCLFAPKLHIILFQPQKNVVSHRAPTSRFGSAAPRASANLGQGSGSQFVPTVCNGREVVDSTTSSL
UniProt P31422, 23-879 limits assumed: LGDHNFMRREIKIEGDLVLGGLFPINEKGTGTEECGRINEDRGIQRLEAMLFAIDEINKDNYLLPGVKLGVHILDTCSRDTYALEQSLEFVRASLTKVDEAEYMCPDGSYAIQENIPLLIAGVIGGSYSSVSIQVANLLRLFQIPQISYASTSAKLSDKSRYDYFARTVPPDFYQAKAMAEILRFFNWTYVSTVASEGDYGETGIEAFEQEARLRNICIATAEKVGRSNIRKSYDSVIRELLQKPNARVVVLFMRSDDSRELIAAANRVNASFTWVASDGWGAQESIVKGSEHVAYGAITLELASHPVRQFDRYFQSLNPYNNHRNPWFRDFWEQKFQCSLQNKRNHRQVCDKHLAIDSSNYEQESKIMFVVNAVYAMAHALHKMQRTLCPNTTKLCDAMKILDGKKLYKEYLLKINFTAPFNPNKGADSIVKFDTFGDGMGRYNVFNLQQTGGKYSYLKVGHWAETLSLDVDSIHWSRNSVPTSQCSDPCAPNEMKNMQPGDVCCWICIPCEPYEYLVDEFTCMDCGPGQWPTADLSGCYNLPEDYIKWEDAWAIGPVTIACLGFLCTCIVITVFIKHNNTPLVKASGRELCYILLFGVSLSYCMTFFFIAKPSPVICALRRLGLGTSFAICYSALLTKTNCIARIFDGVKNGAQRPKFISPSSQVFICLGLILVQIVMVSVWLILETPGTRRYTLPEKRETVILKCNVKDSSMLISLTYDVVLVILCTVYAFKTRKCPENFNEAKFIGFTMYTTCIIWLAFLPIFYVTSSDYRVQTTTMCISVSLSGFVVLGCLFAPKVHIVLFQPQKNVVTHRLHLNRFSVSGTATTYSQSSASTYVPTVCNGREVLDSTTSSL
UniProt Q14416, 19-872 limits assumed: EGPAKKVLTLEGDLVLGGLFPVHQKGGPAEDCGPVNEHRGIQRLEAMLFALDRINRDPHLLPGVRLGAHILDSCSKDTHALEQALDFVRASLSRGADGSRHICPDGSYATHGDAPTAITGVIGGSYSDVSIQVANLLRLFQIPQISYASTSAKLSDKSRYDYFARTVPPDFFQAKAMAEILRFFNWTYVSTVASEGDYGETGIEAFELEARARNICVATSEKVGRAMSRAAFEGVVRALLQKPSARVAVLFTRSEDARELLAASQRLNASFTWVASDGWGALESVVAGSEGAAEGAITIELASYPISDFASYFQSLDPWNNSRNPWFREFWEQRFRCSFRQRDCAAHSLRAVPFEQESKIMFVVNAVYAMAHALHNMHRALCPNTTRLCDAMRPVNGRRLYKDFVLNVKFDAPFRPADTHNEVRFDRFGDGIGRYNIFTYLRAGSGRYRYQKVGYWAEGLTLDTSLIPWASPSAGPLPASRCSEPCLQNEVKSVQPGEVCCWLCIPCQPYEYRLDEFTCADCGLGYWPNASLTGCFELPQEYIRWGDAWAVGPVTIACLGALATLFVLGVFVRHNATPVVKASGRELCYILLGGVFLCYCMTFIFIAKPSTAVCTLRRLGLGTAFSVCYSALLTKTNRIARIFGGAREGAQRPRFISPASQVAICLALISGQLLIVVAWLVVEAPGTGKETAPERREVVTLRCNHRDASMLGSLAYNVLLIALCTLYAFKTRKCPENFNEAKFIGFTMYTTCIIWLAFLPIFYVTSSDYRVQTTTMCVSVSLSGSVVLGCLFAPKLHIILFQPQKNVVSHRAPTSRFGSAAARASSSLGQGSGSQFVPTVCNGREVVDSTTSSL
UniProt Q14832, 23-879 limits assumed: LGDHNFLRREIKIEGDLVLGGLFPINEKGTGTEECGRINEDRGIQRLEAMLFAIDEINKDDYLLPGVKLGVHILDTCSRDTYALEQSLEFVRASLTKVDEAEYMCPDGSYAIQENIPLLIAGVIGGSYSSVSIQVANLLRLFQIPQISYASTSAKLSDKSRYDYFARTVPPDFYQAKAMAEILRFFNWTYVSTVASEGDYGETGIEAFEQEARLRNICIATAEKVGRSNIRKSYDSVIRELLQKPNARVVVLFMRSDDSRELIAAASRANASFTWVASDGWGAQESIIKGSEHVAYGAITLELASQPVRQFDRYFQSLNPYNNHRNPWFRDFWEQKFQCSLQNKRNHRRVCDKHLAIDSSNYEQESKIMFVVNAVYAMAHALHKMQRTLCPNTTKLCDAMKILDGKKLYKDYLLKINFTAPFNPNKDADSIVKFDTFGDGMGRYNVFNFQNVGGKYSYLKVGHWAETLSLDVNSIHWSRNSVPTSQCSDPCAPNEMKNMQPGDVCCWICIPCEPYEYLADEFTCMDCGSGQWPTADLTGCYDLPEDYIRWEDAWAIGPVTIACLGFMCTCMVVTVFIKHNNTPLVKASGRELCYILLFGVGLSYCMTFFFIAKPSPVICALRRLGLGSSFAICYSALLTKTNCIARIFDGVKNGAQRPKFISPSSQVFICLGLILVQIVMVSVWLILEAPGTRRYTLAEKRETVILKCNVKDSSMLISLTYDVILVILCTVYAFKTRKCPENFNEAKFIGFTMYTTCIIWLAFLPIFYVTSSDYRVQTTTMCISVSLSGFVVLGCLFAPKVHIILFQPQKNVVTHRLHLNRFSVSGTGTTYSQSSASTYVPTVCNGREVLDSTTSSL

Key:
Rat mGlu2 = Rat mGlu2 (Rattus norvegicus, UniProt P31421); test: mGlu receptor in vitro assay, thallium flux through GIRK channels, rat mGlu2; settings: read-out: Rat mGlu2 AVG EC50; PAM potency with EC20 glutamate
Procedure: (§1) Human Embryonic Kidney (HEK-293) cell lines co-expressing rat mGlu receptors 2, 3, 4, 6, 7 or 8 and G protein-coupled inwardly-rectifying potassium (GIRK) channels were grown in Growth Media containing 45% DMEM, 45% F-12, 10% FBS, 20 mM HEPES, 2 mM L-glutamine, antibiotic/antimycotic, non-essential amino acids, 700 μg/mL G418, and 0.6 μg/ml puromycin at 37° C. in the presence of 5% CO2. Cells expressing rat mGlu1 and mGlu5 receptor were cultured as described in Hemstapat et al (Mol. Pharmacol. 2006, 70, 616-626). All cell culture reagents were purchased from Invitrogen Corp. (Carlsbad, CA) unless otherwise noted. […]
(§2) Compound activity at the group II (mGlu2 and mGlu3) and group III (mGlu4, mGlu6, mGlu7, and mGlu8) was assessed using thallium flux through GIRK channels, a method that has been described in detail. […] Cell plates and compound plates were loaded onto a kinetic imaging plate reader (FDSS 6000 or 7000; Hamamatsu Corporation, Bridgewater, NJ). Appropriate baseline readings were taken (10 images at 1 Hz; excitation, 470±20 nm; emission, 540±30 nm) and test compounds were added in a 20 μL volume and incubated for approximately 2.5 min before the addition of 10 μL of thallium buffer with or without agonist. […] Data were analyzed using Excel (Microsoft Corp, Redmond, WA). […] Potencies were calculated from fits using a four-point parameter logistic equation. […]

Rat mGlu3 = Rat mGlu3 (Rattus norvegicus, UniProt P31422); test: mGlu receptor in vitro assay (thallium flux through GIRK channels / calcium assay), rat mGlu3; settings: read-out: Rat mGlu3 AVG EC50; PAM potency with EC20 glutamate
Procedure: as §1, §2

Human mGlu2 = Human mGlu2 (Homo sapiens, UniProt Q14416); test: mGlu receptor in vitro assay, human mGlu2; settings: read-out: Human mGlu2 AVG EC50
Human mGlu3 = Human mGlu3 (Homo sapiens, UniProt Q14832); test: mGlu receptor in vitro assay, human mGlu3; settings: read-out: Human mGlu3 AVG EC50

`COc1ccc(C(=O)O)cc1OCOc1ccc(C(=O)CC(C)(C)C)c(O)c1C` was tested, and the EC50 (Rat mGlu2) was 0.348 µM, the EC50 (Rat mGlu3) was greater than 30 µM and the EC50 (Human mGlu2) was 0.179 µM. It also gave an EC50 (Human mGlu3) greater than 30 µM.

With `COc1ccc(C(=O)O)cc1OCCCCOc1ccc2c(c1C)OC(C)(C)CC2=O` the EC50 (Human mGlu2) was greater than 10 µM and the EC50 (Human mGlu3) was greater than 30 µM.
